The values below come from publication doi:10.1101/776864.

For this experiment, the target named is M2 protein of influenza A/WSN/33 (H1N1), wild type (Influenza A virus A/WSN/33 (H1N1)) (UniProt P05780). Kind of experiment: non-reducing SDS-PAGE and Western blot. Background: In western blotting, separated proteins are transferred to a membrane and probed.

These are yes or no findings as the source states them, for the method shown. Some results given as binding are weak or reduced against the parent protein; the word gives no strength.

As for “M2 protein of influenza A/WSN/33 (H1N1), wild type (from UniProt P05780 1-97)”, the binding result is listed as “binds”.
